The test system of the test is CD2F1 mice, L1210 leukemia ip, survival T/C. Kind of test: NCI In Vivo Anticancer Drug Screen. Data for tumor model L1210 Leukemia (intraperitoneal) in CD2F1 (CDF1) mice. Conditions: higher T/C = longer survival. The method in brief: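 Mice carrying a transplanted tumor received test compound or vehicle alone. The value is the measurement in the treated group divided by that in the vehicle-treated control group.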

Where [1] appears, read: T/C endpoint: mean survival time, dose: 100.0 mg/kg/injection, schedule: Q01DX001 (ip), vehicle: Klucel (hydroxypropylcellulose) (HPC).
Setting [2] is: T/C endpoint: mean survival time, dose: 200.0 mg/kg/injection, schedule: Q01DX001 (ip), vehicle: Klucel (hydroxypropylcellulose) (HPC).
Setting [3] is: T/C endpoint: mean survival time, dose: 400.0 mg/kg/injection, schedule: Q04DX002 (ip), vehicle: saline with Tween-80.
Where [4] appears, read: T/C endpoint: mean survival time, dose: 400.0 mg/kg/injection, schedule: Q04DX003 (ip), vehicle: saline with Tween-80.
Setting [5] is: T/C endpoint: mean survival time, dose: 200.0 mg/kg/injection, schedule: Q01DX009 (ip), vehicle: saline with Tween-80.

Among the data in PubChem BioAssay AID256 (DTP/NCI, 2004) are survivor count and T/C values, retold here.

The list does not hold the whole screen: it is rich in T/C values a quarter to a half above the control, in often repeated tests (any T/C) and in doses without a T/C. Other doses and runs of a compound stand elsewhere. T/C is the treated group as % of the vehicle group. Some entries give survivors of the animals treated and no T/C: the source holds a T/C of zero for them, seemingly a mark for toxic or unscored doses. Some doses without a T/C left all or most animals alive at the check, yet need not have been tolerated: the source hardly ever lists a survival T/C far under the control, and the zero likely stands for such cases as well. Survivors were counted at the toxicity check, usually on the fifth day, unless a day is given; later deaths do not show. Schedule codes are those of the source, read here as Q, the interval in days (D) or hours (H), X, the number of doses. For survival time, the PubChem record calls one and a half times the control and up active, and a quarter to a half above the control has no call in these data; cut-offs in other NCI protocols can differ. Some doses were run more than once; their values stand side by side, smallest first.

Regarding `CCCC[P+](CCCC)(CCCC)Cc1ccc([N+](=O)[O-])cc1`, the survivor count reads like this: under setting [1], 0 of 6; (T/C endpoint: mean survival time, dose: 100.0 mg/kg/injection, schedule: Q01DX009 (ip), vehicle: Klucel (hydroxypropylcellulose) (HPC)) 1 of 6; (T/C endpoint: mean survival time, dose: 100.0 mg/kg/injection, schedule: Q04DX002 (ip), vehicle: Klucel (hydroxypropylcellulose) (HPC)) 5 of 6; (T/C endpoint: mean survival time, dose: 100.0 mg/kg/injection, schedule: Q04DX003 (ip), vehicle: Klucel (hydroxypropylcellulose) (HPC)) 3 of 6; under setting [2], 0 of 6; (T/C endpoint: mean survival time, dose: 200.0 mg/kg/injection, schedule: Q04DX002 (ip), vehicle: Klucel (hydroxypropylcellulose) (HPC)) 0 of 6. The survivor count by setting is: (T/C endpoint: mean survival time, dose: 200.0 mg/kg/injection, schedule: Q04DX003 (ip), vehicle: Klucel (hydroxypropylcellulose) (HPC)) 1 of 6; (T/C endpoint: mean survival time, dose: 400.0 mg/kg/injection, schedule: Q01DX001 (ip), vehicle: Klucel (hydroxypropylcellulose) (HPC)) 0 of 6; (T/C endpoint: mean survival time, dose: 400.0 mg/kg/injection, schedule: Q04DX002 (ip), vehicle: Klucel (hydroxypropylcellulose) (HPC)) 0 of 6.

In the case of `C[CH2][Sn]1([CH2]C)[O]C2C(CO)OC(n3ccc(=O)[nH]c3=O)C2[O]1` (stereo not drawn), the survivor count is, setting by setting: (T/C endpoint: mean survival time, dose: 12.5 mg/kg/injection, schedule: Q01DX005 (ip), vehicle: water) 3 of 6; (T/C endpoint: mean survival time, dose: 25.0 mg/kg/injection, schedule: Q01DX005 (ip), vehicle: other) 0 of 6; (T/C endpoint: mean survival time, dose: 25.0 mg/kg/injection, schedule: Q01DX005 (ip), vehicle: water) 0 of 6; (T/C endpoint: mean survival time, dose: 50.0 mg/kg/injection, schedule: Q01DX005 (ip), vehicle: other) 0 of 6; (T/C endpoint: mean survival time, dose: 100.0 mg/kg/injection, schedule: Q01DX005 (ip), vehicle: other) 0 of 6; (T/C endpoint: mean survival time, dose: 200.0 mg/kg/injection, schedule: Q01DX005 (ip), vehicle: other) 0 of 6.

`CC1OC(OC2C(O)CC(OC3C(O)CC(OC4CCC5(C)C(CCC6C5CCC5(C)C(C7=CC(=O)OC7)CCC65O)C4)OC3C)OC2C)CC(O)C1O` (stereo not drawn): under “T/C endpoint: median survival time, dose: 16.0 mg/kg/injection, schedule: Q04DX003 (iv), vehicle: water”, the survivor count is 4 of 8.

`O=[N+]([O-])c1ccc(Cn2cc[n+](Cc3ccc([N+](=O)[O-])cc3)c2)cc1`: the survivor count runs as follows: (T/C endpoint: mean survival time, dose: 100.0 mg/kg/injection, schedule: Q01DX001 (ip), vehicle: saline with Tween-80) 1 of 6; (T/C endpoint: mean survival time, dose: 200.0 mg/kg/injection, schedule: Q01DX001 (ip), vehicle: saline with Tween-80) 0 of 6; (T/C endpoint: mean survival time, dose: 400.0 mg/kg/injection, schedule: Q01DX001 (ip), vehicle: saline with Tween-80) 0 of 6.

As to `CSC(=NC#N)SC`, the survivor count runs as follows: (T/C endpoint: mean survival time, dose: 12.5 mg/kg/injection, schedule: Q01DX001 (ip), vehicle: Klucel (hydroxypropylcellulose) (HPC)) 0 of 3; (T/C endpoint: mean survival time, dose: 50.0 mg/kg/injection, schedule: Q01DX001 (ip), vehicle: Klucel (hydroxypropylcellulose) (HPC)) 0 of 3; under setting [1], 0 of 3; under setting [2], 0 of 3.

Turning to `CC12CCC3C(CCC4CC(OC(=O)Cc5ccc(N(CCCl)CCCl)cc5)CCC43C)C1CCC(=O)N2` (stereo not drawn), the T/C is, setting by setting: (T/C endpoint: mean survival time, dose: 24.0 mg/kg/injection, schedule: Q01DX009 (ip), vehicle: saline with Tween-80) 140 % of control; (T/C endpoint: median survival time, dose: 6.0 mg/kg/injection, schedule: Q01DX009 (ip), vehicle: saline with Tween-80) 125 % of control; (T/C endpoint: median survival time, dose: 12.0 mg/kg/injection, schedule: Q01DX009 (ip), vehicle: saline with Tween-80) 125 and 130 % of control.

Consider `O=C(CC(O)(C(F)(F)F)C(F)(F)F)c1ccc(C(=O)CC(O)(C(F)(F)F)C(F)(F)F)cc1`, for which the survivor count (T/C endpoint: mean survival time, dose: 400.0 mg/kg/injection, schedule: Q04DX003 (ip), vehicle: other) is on record as 1 of 6.

As for `NC(=O)COc1ccc(Br)cc1`, the survivor count under setting [3] is given as 1 of 3.

For the compound `C[CH2][Pb]([CH2]C)([CH2]C)[O]C(=O)c1cc(-c2ccccc2)nc2ccccc12`, the survivor count (T/C endpoint: mean survival time, dose: 12.5 mg/kg/injection, schedule: Q01DX009 (ip), vehicle: saline with Tween-80) is 1 of 6 and the survivor count (T/C endpoint: mean survival time, dose: 25.0 mg/kg/injection, schedule: Q01DX009 (ip), vehicle: saline with Tween-80) is given as 1 of 6.

For the compound `CCCCCCCCN(c1ccc(I)cc1)S(=O)(=O)c1ccc(C)cc1`, the survivor count under setting [4] is reported as 6 of 6.

For `CC1CCC2[S][Sn]3([NH]C2C1)[NH]C1CC(C)CCC1[S]3` (stereo not drawn), the survivor count under setting [3] was 1 of 3.

Regarding `CCCC(=O)OCc1ccc(Cl)c(Cl)c1`, the survivor count was 3 of 6 under setting [5] and 2 of 6 under setting [4].

As for `O=S(=O)(O)C1CCC(O)C2[N-]CCCC21.O=S(=O)(O)C1CCC(O)C2[N-]CCCC21.[Zn+2]` (stereo not drawn), under setting [5], the survivor count was 6 of 6.

Turning to `NCCc1ccccn1`, the survivor count under setting [4] is reported as 0 of 3.

Consider `CCN(CC)C(=S)SC`, for which the survivor count (T/C endpoint: mean survival time, dose: 300.0 mg/kg/injection, schedule: Q01DX001 (ip), vehicle: saline) is 0 of 6.

Turning to `CC(=O)NC1CC(n2cnc3c(=O)[nH]c(N)nc32)OC1C(C)O` (stereo not drawn), under “T/C endpoint: median survival time, dose: 200.0 mg/kg/injection, schedule: Q01DX005 (ip), vehicle: distilled water + Tween-80”, the survivor count is recorded as 1 of 6.

Consider `CN(C)N=Nc1cccc(C(N)=O)c1`, for which the T/C is 147 % of control (T/C endpoint: mean survival time, dose: 23.0 mg/kg/injection, schedule: Q01DX009 (ip), vehicle: Klucel (hydroxypropylcellulose) (HPC)); 147 % of control (T/C endpoint: mean survival time, dose: 39.0 mg/kg/injection, schedule: Q01DX009 (ip), vehicle: Klucel (hydroxypropylcellulose) (HPC)); 144 % of control (T/C endpoint: mean survival time, dose: 40.0 mg/kg/injection, schedule: Q01DX009 (ip), vehicle: Klucel (hydroxypropylcellulose) (HPC)); 133 % of control (T/C endpoint: mean survival time, dose: 65.0 mg/kg/injection, schedule: Q01DX009 (ip), vehicle: Klucel (hydroxypropylcellulose) (HPC)). For the same compound, the survivor count (T/C endpoint: mean survival time, dose: 160.0 mg/kg/injection, schedule: Q01DX009 (ip), vehicle: Klucel (hydroxypropylcellulose) (HPC)) was 6 of 6.

As to `OCC1OC(n2cnc3c(NCCc4ccc(O)c(O)c4)ncnc32)C(O)C1O` (stereo not drawn), the survivor count is 3 of 6 (T/C endpoint: mean survival time, dose: 100.0 mg/kg/injection, schedule: Q01DX005 (ip), vehicle: saline with Tween-80) and 1 of 6 (T/C endpoint: mean survival time, dose: 200.0 mg/kg/injection, schedule: Q01DX005 (ip), vehicle: saline with Tween-80).

For `N#CCc1ccc(Cl)c(Cl)c1`, for the setting “T/C endpoint: mean survival time, dose: 100.0 mg/kg/injection, schedule: Q01DX009 (ip), vehicle: saline with Tween-80”, the survivor count was 3 of 6.

`CC(C)=CCNc1ncnc2c1c(C#N)cn2C1OC(CO)C(O)C1O` (stereo not drawn): the survivor count is listed as 0 of 6 (T/C endpoint: mean survival time, dose: 100.0 mg/kg/injection, schedule: Q01DX005 (ip), vehicle: saline) and 0 of 6 (T/C endpoint: mean survival time, dose: 200.0 mg/kg/injection, schedule: Q01DX005 (ip), vehicle: saline).

As to `O=C(O)c1[nH]c(=O)[nH]c(=O)c1F`, the T/C is, setting by setting: (T/C endpoint: mean survival time, dose: 2.5 mg/kg/injection, schedule: Q01DX009 (ip), vehicle: Klucel (hydroxypropylcellulose) (HPC)) 138 % of control; (T/C endpoint: mean survival time, dose: 2.5 mg/kg/injection, schedule: Q01DX009 (ip), vehicle: saline) 146 % of control; (T/C endpoint: mean survival time, dose: 5.0 mg/kg/injection, schedule: Q01DX009 (ip), vehicle: Klucel (hydroxypropylcellulose) (HPC)) 130 % of control; (T/C endpoint: mean survival time, dose: 5.0 mg/kg/injection, schedule: Q01DX009 (ip), vehicle: saline) 143 % of control; (T/C endpoint: mean survival time, dose: 10.0 mg/kg/injection, schedule: Q01DX009 (ip), vehicle: Klucel (hydroxypropylcellulose) (HPC)) 135 % of control; (T/C endpoint: mean survival time, dose: 10.0 mg/kg/injection, schedule: Q03DX003 (ip), vehicle: Klucel (hydroxypropylcellulose) (HPC)) 130 % of control.

As for `CCOC(=O)Nc1cc2c(c(N)n1)N=C(c1ccc3ccccc3c1)CN2`, the T/C is, setting by setting: (T/C endpoint: median survival time, dose: 2.0 mg/kg/injection, schedule: Q01DX009 (ip), vehicle: saline with Tween-80) 127 % of control; (T/C endpoint: median survival time, dose: 4.0 mg/kg/injection, schedule: Q01DX009 (ip), vehicle: saline with Tween-80) 135 % of control; (T/C endpoint: median survival time, dose: 7.5 mg/kg/injection, schedule: Q01DX009 (ip), vehicle: saline with Tween-80) 136 % of control; (T/C endpoint: median survival time, dose: 8.0 mg/kg/injection, schedule: Q01DX009 (ip), vehicle: saline with Tween-80) 148 % of control.
